Values of other authors as cited in US20240180894A1, “METHODS OF TREATING MENTAL AND/OR MOOD DISORDERS USING 2-BROMO-LSD ALONE OR IN COMBINATION WITH A MTOR INHIBITOR” (BeTTERLIFE PHARMA INC., priority 2021, published 2024).

CO[C@H]1C[C@@H]2CC[C@@H](C)[C@@](O)(O2)C(=O)C(=O)N2CCCC[C@H]2C(=O)O[C@H]([C@H](C)C[C@@H]2CC[C@@H](O)[C@H](OC)C2)CC(=O)[C@H](C)/C=C(\C)[C@@H](O)[C@@H](OC)C(=O)[C@H](C)C[C@H](C)/C=C/C=C/C=C/1C [Rapamycin, (3S,6R,7E,9R,10R,12R,14S,15E,17E,19E,21S,23S,26R,27R,34aS)-9,10,12,13,14,21,22,23,24,25,26,27,32,33,34,34a-hexadecahydro-9,27-dihydroxy-3-[(1R)-2-[(1S,3R,4R)-4-hydroxy-3-methoxycyclohexyl]-1-methylethyl]-10,21-dimethoxy-6,8,12,14,20,26-hexamethyl-23,27-epoxy-3H-pyrido[2,1-c][1,4]-oxaazacyclohentriacontine-1,5,11,28,29(4H,6H,31H)-pentone]
solubility in alcohols, halogenated hydrocarbons and dimethyl sulfoxide (alcohols, halogenated hydrocarbons, dimethyl sulfoxide): soluble | solubility in water, aliphatic hydrocarbons, and diethyl ether (water, aliphatic hydrocarbons, diethyl ether): sparingly soluble
